System: Pseudomonas aeruginosa ATCC 27853
Test: Standard bacterial EPI assay: MIC of levofloxacin in the absence and presence of the EPI
Assay type: cell-based
Details: ATCC27853, P. aeruginosa ATCC 27853, no EPI
Method: MIC assays were conducted in accordance with Clinical and Laboratory Standards Institute (CLSI) guidelines for broth microdilution. A 96-well plate containing cation-adjusted Mueller-Hinton (CAMH broth with 2-fold serial dilution of compounds was inoculated with log-phase bacterial at 5×10^5 CFU/mL. The final volume in each well was 100 μL. Each compound was tested in duplicate. The microtiter plates were incubated in an aerobic environment for 18 hours at 37° C. Then the bacterial growth was tested by reading the plate with a VersaMax plate reader (Molecular Devices, Inc.) at 600 nm. The MIC was defined as the lowest compound concentration that inhibited 90% of bacteria growth.
The EPI assay for the purposes of these studies represents a MIC assay in which the MIC of the antibiotic against the bacteria is tested in the presence of an experimental efflux pump inhibitor (EPI). […] Using serial dilutions of the EPI, its enhancement of antibiotic activity was then evaluated. […]
The impact of Example 2 on the MIC values of two test antibiotics (levofloxacin and cefepime) against P. aeruginosa ATCC 27853 were evaluated using our standard EPI assay. […]
In our standard EPI assay, the MIC of the test antibiotic is determined in the absence and presence of sub-inhibitory concentrations of the EPI. […]

MIC: 1 mg/L
SMILES: C[C@H]1COc2c(N3CCN(C)CC3)c(F)cc3c(=O)c(C(=O)O)cn1c23 [levofloxacin, reference compound]

Reference: patent US11826357B2, “Bacterial efflux pump inhibitors” (RUTGERS, THE STATE UNIVERSITY OF NEW JERSEY, priority 2017, dated 2023)
